Source: publication PMC3476531, “Synergy of Peptide and Sugar in O-GlcNAcase Substrate Recognition” (Chemistry & Biology, 2012)

Sequences of proteins named here, by UniProt entry; tags and fusion partners are left off. A change or cut given only in a name is not applied to a line headed by its entry.
UniProt O60502, whole entry: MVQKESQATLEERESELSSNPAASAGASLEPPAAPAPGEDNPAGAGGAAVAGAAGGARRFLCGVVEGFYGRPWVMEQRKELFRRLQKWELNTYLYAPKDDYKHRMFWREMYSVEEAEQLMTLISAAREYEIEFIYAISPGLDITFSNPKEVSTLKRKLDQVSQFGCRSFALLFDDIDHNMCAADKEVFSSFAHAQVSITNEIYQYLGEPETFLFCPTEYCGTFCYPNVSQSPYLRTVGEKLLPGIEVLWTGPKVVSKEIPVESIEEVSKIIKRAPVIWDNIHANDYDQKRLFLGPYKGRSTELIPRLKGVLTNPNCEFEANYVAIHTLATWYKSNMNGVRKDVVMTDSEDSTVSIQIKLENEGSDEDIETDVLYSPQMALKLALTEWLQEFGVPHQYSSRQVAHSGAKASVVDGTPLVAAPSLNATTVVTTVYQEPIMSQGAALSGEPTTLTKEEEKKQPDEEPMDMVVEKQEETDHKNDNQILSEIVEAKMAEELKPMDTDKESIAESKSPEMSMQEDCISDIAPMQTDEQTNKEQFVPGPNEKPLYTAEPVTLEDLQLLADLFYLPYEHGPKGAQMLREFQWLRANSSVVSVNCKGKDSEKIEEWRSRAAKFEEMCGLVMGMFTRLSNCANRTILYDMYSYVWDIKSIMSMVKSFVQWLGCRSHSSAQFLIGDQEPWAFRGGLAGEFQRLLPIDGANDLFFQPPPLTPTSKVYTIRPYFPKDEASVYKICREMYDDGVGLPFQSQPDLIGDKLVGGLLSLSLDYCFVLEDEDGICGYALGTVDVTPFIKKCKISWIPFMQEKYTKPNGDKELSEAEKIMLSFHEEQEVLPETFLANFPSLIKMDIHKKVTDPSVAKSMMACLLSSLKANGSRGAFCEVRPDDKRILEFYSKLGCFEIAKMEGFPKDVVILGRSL
UniProt O60502, whole entry Y69F: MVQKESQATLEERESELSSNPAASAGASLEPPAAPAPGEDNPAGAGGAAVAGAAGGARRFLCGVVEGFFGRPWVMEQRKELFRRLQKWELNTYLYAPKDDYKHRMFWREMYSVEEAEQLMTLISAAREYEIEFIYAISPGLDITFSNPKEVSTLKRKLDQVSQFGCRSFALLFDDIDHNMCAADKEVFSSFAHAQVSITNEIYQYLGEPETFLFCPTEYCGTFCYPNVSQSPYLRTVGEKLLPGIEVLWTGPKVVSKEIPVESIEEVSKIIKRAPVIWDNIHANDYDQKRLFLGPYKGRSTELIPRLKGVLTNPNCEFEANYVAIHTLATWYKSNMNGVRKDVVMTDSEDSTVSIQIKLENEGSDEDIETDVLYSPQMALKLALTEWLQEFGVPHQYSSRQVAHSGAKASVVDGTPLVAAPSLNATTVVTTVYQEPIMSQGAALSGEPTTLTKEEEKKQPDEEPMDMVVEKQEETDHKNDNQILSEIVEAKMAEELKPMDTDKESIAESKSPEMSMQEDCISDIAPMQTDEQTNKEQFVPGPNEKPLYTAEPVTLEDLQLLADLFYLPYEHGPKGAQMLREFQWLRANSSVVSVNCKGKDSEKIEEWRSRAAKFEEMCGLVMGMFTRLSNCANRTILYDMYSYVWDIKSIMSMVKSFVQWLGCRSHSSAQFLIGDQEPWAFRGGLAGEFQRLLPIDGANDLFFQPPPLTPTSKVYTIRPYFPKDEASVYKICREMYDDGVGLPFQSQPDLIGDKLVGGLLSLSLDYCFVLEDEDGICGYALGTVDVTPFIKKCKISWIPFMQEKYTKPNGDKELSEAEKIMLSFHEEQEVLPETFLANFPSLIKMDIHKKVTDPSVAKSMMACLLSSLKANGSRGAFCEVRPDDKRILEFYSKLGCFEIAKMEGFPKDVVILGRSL
UniProt O60502, whole entry Y69K: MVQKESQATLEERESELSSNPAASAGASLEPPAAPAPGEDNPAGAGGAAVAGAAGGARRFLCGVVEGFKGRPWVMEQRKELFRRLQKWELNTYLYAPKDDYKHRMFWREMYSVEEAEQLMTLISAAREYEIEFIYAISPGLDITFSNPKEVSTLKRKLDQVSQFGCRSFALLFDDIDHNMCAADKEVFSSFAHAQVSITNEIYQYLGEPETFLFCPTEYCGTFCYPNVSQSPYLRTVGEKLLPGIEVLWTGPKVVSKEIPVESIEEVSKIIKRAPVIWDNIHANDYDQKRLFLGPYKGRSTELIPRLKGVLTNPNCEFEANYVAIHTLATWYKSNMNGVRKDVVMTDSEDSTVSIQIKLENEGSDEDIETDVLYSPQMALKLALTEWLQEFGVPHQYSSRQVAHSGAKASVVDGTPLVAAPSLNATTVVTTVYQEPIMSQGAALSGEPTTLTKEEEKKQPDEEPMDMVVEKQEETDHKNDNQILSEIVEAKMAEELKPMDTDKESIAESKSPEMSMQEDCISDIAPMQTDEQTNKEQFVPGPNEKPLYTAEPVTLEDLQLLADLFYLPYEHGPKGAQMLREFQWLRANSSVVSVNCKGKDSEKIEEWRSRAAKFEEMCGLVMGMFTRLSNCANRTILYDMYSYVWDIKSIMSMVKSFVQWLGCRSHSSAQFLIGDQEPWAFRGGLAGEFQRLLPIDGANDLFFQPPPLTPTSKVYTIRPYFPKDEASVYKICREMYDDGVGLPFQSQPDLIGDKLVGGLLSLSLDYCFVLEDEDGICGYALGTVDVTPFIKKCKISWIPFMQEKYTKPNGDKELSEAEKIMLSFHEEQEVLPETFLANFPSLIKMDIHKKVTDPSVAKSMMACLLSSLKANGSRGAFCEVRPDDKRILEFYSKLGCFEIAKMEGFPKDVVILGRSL
UniProt O60502, whole entry Y69Q: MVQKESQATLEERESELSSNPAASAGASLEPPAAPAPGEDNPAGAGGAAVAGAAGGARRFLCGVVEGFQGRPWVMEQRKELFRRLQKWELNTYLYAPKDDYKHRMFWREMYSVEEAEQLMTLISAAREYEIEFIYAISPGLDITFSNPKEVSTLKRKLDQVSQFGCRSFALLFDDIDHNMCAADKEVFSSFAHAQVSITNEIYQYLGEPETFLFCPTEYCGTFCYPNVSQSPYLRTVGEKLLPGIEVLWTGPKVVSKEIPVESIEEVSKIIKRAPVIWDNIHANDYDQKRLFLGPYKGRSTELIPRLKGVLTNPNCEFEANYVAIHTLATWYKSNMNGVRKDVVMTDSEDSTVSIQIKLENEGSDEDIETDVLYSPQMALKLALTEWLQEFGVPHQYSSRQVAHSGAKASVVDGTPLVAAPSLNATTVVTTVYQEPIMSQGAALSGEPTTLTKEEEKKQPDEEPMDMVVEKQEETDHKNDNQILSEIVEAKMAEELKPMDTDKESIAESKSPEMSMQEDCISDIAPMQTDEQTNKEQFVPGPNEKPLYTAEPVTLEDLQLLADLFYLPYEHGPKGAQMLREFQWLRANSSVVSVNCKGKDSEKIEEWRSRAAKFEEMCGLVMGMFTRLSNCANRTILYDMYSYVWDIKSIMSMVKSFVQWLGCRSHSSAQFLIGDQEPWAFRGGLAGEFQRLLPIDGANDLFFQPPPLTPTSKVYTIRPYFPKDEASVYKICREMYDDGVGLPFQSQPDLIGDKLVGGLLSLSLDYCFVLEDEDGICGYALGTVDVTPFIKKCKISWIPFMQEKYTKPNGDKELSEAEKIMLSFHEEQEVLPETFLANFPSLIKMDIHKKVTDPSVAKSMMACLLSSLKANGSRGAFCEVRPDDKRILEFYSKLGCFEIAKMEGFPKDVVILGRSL
UniProt O60502, whole entry Y69S: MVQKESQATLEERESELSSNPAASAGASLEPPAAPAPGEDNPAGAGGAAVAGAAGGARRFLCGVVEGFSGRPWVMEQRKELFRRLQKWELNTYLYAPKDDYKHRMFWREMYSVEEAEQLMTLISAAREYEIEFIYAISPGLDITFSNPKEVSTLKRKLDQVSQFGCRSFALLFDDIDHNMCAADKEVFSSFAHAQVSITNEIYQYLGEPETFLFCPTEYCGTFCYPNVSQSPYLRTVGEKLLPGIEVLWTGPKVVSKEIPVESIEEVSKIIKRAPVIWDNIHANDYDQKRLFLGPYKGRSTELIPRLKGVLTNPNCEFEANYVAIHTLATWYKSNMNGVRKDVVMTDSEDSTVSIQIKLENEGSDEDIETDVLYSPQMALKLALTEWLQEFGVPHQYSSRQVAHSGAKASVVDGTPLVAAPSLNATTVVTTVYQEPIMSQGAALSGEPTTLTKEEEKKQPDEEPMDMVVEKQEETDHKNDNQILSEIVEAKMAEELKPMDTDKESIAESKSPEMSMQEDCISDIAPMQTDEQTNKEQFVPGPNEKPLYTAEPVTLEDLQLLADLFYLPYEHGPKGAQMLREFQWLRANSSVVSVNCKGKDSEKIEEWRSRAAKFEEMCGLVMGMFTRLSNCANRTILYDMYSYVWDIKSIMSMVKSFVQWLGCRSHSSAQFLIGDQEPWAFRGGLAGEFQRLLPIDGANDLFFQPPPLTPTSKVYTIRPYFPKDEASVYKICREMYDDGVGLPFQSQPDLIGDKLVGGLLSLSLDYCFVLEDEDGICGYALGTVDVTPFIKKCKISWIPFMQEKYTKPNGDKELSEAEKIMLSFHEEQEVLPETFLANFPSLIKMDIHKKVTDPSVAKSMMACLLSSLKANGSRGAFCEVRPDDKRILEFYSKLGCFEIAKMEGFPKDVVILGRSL

Legend:
Type in all cases: biochemical
hOGA Y69K = hOGA Y69K (Homo sapiens, UniProt O60502, Y69K); assay: hOGA Y69K mutant glycopeptide hydrolysis, substrate competition assay; details: read-out: Michaelis constant (KM) for hOGA Y69K; hOGA point mutant Y69K; competition with 4MU-GlcNAc; 37°C, pH 7.4; triplicate
hOGA Y69S = hOGA Y69S (Homo sapiens, UniProt O60502, Y69S); assay: hOGA Y69S mutant glycopeptide hydrolysis, substrate competition assay; details: read-out: Michaelis constant (KM) for hOGA Y69S; hOGA point mutant Y69S; competition with 4MU-GlcNAc; 37°C, pH 7.4; triplicate
hOGA Y69Q = hOGA Y69Q (Homo sapiens, UniProt O60502, Y69Q); assay: hOGA Y69Q mutant glycopeptide hydrolysis, substrate competition assay; details: read-out: Michaelis constant (KM) for hOGA Y69Q; hOGA point mutant Y69Q; competition with 4MU-GlcNAc; 37°C, pH 7.4; triplicate
hOGA = hOGA (Homo sapiens, UniProt O60502); assay: hOGA glycopeptide hydrolysis, substrate competition assay with 4MU-GlcNAc reporter; details: read-out: Michaelis constant (KM) of glycopeptide substrate for hOGA; wild-type full-length hOGA; competition with 4MU-GlcNAc reporter substrate; 37°C, 50 mM citrate-phosphate buffer pH 7.4, 0.1 mg/ml BSA; triplicate; ± error of curve-fit; listed as VDS(O-GlcNAc)TPG
hOGA Y69F = hOGA Y69F (Homo sapiens, UniProt O60502, Y69F); assay: hOGA Y69F mutant glycopeptide hydrolysis, substrate competition assay; details: read-out: Michaelis constant (KM) for hOGA Y69F; hOGA point mutant Y69F; competition with 4MU-GlcNAc; 37°C, pH 7.4; triplicate

CC(=O)N[C@H]1[C@H](OC[C@H](NC(=O)[C@H](CC(=O)O)NC(=O)[C@@H](NC(C)=O)C(C)C)C(=O)N[C@H](C(=O)N2CCC[C@H]2C(=O)NCC(N)=O)[C@@H](C)O)O[C@H](CO)[C@@H](O)[C@@H]1O
Km (hOGA Y69K): > 4 mM | Km (hOGA Y69S): 3.4 mM | Km (hOGA Y69Q): > 4 mM | Km (hOGA): 1.3 mM | Km (hOGA Y69F): 2.7 mM

The match of structure and compound is tentative.
